In PubChem BioAssay AID248 (DTP/NCI, 2004):
The list is a part of this screen's results and no random one: it is rich in T/C values a quarter to a half above the control, in often repeated tests (any T/C) and in doses without a T/C. Other doses and runs of a compound stand elsewhere. T/C: endpoint of the treated group in % of that of the vehicle group. Some doses have a count of surviving animals in place of a T/C: the source holds a T/C of zero for them, seemingly a mark for toxic or unscored doses. Some doses without a T/C left all or most animals alive at the check, yet need not have been tolerated: the source hardly ever lists a survival T/C far under the control, and the zero likely stands for such cases as well. Counts of survivors are from the toxicity check (mostly the fifth day) where no day follows; animals may have died later. Schedules are NCI's codes, taken here to give the interval after Q, in days (D) or hours (H), and the number of doses after X. Some entries hold several experiments; the results are listed from low to high. Marks such as (2×) give the number of equal values in this list. Some schedule codes hold Z or #, which are not explained here. Some structures stand for samples that the source files as different forms (salt, stereo form or complex); doses refer to the form tested. Where survival is the endpoint, this PubChem deposit counts one and a half times the control or more as active, and values a quarter to a half above the control carry no call in these data; other NCI protocols may use other cut-offs. Some T/C values carry the count of animals alive at the toxicity check (mostly the fifth day); without a count, all were alive then.

System: L1210 leukemia ip in BDF1 mice, survival T/C
Assay: NCI In Vivo Anticancer Drug Screen. Data for tumor model L1210 Leukemia (intraperitoneal) in B6D2F1 (BDF1) mice
Conditions: T/C endpoint: mean survival time, higher T/C = longer survival
[1] = dose: 100.0 mg/kg/injection, schedule: Q04DX003 (ip), vehicle: saline
[2] = dose: 200.0 mg/kg/injection, schedule: Q04DX003 (ip), vehicle: saline
[3] = dose: 400.0 mg/kg/injection, schedule: Q04DX003 (ip), vehicle: saline
[4] = dose: 200.0 mg/kg/injection, schedule: Q04DX002 (ip), vehicle: Klucel (hydroxypropylcellulose) (HPC)
[5] = dose: 100.0 mg/kg/injection, schedule: Q04DX003 (ip), vehicle: saline with Tween-80
[6] = dose: 150.0 mg/kg/injection, schedule: Q01DX001 (ip), vehicle: saline
[7] = dose: 300.0 mg/kg/injection, schedule: Q01DX001 (ip), vehicle: saline
[8] = dose: 400.0 mg/kg/injection, schedule: Q04DX002 (ip), vehicle: saline
[9] = dose: 100.0 mg/kg/injection, schedule: Q01DX001 (ip), vehicle: saline
[10] = dose: 200.0 mg/kg/injection, schedule: Q01DX001 (ip), vehicle: saline
[11] = dose: 400.0 mg/kg/injection, schedule: Q01DX001 (ip), vehicle: saline
[12] = dose: 400.0 mg/kg/injection, schedule: Q01DX009 (ip), vehicle: saline with Tween-80
[13] = dose: 25.0 mg/kg/injection, schedule: Q04DX003 (ip), vehicle: saline

Nc1[nH]c(=S)[nH]c(=O)c1N
survivor count [1]: 3 of 6
survivor count [2]: 3 of 6
survivor count [3]: 0 of 6
survivor count (dose: 500.0 mg/kg/injection, schedule: Q01DX Z (ip), vehicle: methylcellulose (MC)): 0 of 6

O=[N+]([O-])c1ccc(SC2=NCCCN2)c([N+](=O)[O-])c1
survivor count (dose: 50.0 mg/kg/injection, schedule: Q04DX002 (ip), vehicle: Klucel (hydroxypropylcellulose) (HPC)): 0 of 3
survivor count (dose: 100.0 mg/kg/injection, schedule: Q04DX002 (ip), vehicle: Klucel (hydroxypropylcellulose) (HPC)): 0 of 3
survivor count [4]: 0 of 3
survivor count (dose: 400.0 mg/kg/injection, schedule: Q04DX002 (ip), vehicle: Klucel (hydroxypropylcellulose) (HPC)): 0 of 3

CCOC(=O)c1nc(N)[nH]c(=O)c1CCCCc1ccccc1
survivor count (dose: 75.0 mg/kg/injection, schedule: Q01DX001 (ip), vehicle: saline with Tween-80): 6 of 6

Nc1cc(C(=O)O)c(O)c(Cl)c1O
survivor count [5]: 4 of 6
survivor count (dose: 200.0 mg/kg/injection, schedule: Q04DX003 (ip), vehicle: saline with Tween-80): 1 of 6
survivor count (dose: 400.0 mg/kg/injection, schedule: Q04DX003 (ip), vehicle: saline with Tween-80): 0 of 6

CC(C)/C(=N\[N+](C)(C)C)c1ccccc1
survivor count [6]: 0 of 6
survivor count [7]: 0 of 6

O=[N+]([O-])c1ccc(O)c2ncccc12
survivor count [4]: 1 of 3
survivor count (dose: 400.0 mg/kg/injection, schedule: Q01DX001 (ip), vehicle: carboxymethylcellulose (CMC)): 0 of 4

CCN(CC)CCCOC(=O)c1ccc(N)cc1
survivor count [1]: 4 of 6
survivor count [2]: 0 of 6
survivor count [3]: 0 of 6

CC(=O)c1ccc[n+](Cc2ccc([N+](=O)[O-])cc2)c1
survivor count (dose: 200.0 mg/kg/injection, schedule: Q04DX003 (ip), vehicle: saline sonified): 0 of 6
survivor count (dose: 400.0 mg/kg/injection, schedule: Q04DX003 (ip), vehicle: saline sonified): 0 of 6

CN(C)CC(Oc1ccccc1)c1ccccc1 (stereo not given)
survivor count (dose: 200.0 mg/kg/injection, schedule: Q04DX002 (ip), vehicle: saline): 0 of 3
survivor count [8]: 0 of 3

COC(=O)c1c(C(=O)c2ccccc2)nn2c(-c3ccccc3)c(-c3ccccc3)c(-c3ccccc3)c(-c3ccccc3)c12
survivor count [9]: 3 of 3

CC(C)(C)C1=CC(=O)C(N=[N+]=[N-])=CC1=O
survivor count [8]: 2 of 3

CN1CC2([N+](=O)[O-])C=CCC([N+](=O)[O-])(C1)C2 (stereo not given)
survivor count (dose: 400.0 mg/kg/injection, schedule: Q01DX009 (ip), vehicle: water): 3 of 6

O=C(NC(c1ccccc1)c1ccccc1)c1ccccc1
survivor count [10]: 4 of 4
survivor count [11]: 4 of 4

CN(C)CCCNCC(=O)Nc1ccc(S(=O)(=O)c2ccc([N+](=O)[O-])cc2)cc1
survivor count [7]: 1 of 6

COC(=O)C1CC23CCCC12CC3 (stereo not given)
survivor count (dose: 400.0 mg/kg/injection, schedule: Q04DX002 (ip), vehicle: saline with Tween-80): 0 of 3

Nc1ncccc1O
survivor count (dose: 75.0 mg/kg/injection, schedule: Q01DX001 (ip), vehicle: saline): 3 of 6
survivor count [6]: 0 of 6
survivor count [7]: 0 of 6

CCCCCC/C(C)=N/O
survivor count [12]: 1 of 6

N#Cc1nn(C2OC(CO)C(O)C2O)c2ncnc(N)c12 (stereo not given)
T/C (dose: 100.0 mg/kg/injection, schedule: Q01DX009 (ip), vehicle: saline): 127 % of control [5 of 6 alive]

COc1ccc(N2C(=O)C=CC2=O)cc1
survivor count (dose: 100.0 mg/kg/injection, schedule: Q01DX001 (ip), vehicle: saline with Tween-80): 0 of 3
survivor count (dose: 200.0 mg/kg/injection, schedule: Q01DX001 (ip), vehicle: saline with Tween-80): 0 of 3
survivor count (dose: 400.0 mg/kg/injection, schedule: Q01DX001 (ip), vehicle: saline with Tween-80): 0 of 3

OCCS
T/C [9]: 144 % of control
survivor count [11]: 2 of 4

OCCN1CCN(CCCN2c3ccccc3Sc3ccc(C(F)(F)F)cc32)CC1
survivor count (dose: 2.5 mg/kg/injection, schedule: Q01DX009 (ip), vehicle: saline): 6 of 6
survivor count (dose: 3.12 mg/kg/injection, schedule: Q01DX009 (ip), vehicle: saline): 6 of 6
survivor count (dose: 4.68 mg/kg/injection, schedule: Q01DX009 (ip), vehicle: saline): 6 of 6
survivor count (dose: 5.0 mg/kg/injection, schedule: Q01DX009 (ip), vehicle: saline): 6 of 6
survivor count (dose: 6.25 mg/kg/injection, schedule: Q01DX009 (ip), vehicle: saline): 6 of 6
survivor count (dose: 7.7 mg/kg/injection, schedule: Q01DX009 (ip), vehicle: saline): 5 of 6
survivor count (dose: 9.37 mg/kg/injection, schedule: Q01DX009 (ip), vehicle: saline): 6 of 6
survivor count (dose: 10.0 mg/kg/injection, schedule: Q01DX009 (ip), vehicle: saline): 6 of 6
survivor count (dose: 11.5 mg/kg/injection, schedule: Q01DX009 (ip), vehicle: saline): 6 of 6
survivor count (dose: 12.5 mg/kg/injection, schedule: Q04DX003 (ip), vehicle: saline): 2 of 4
survivor count (dose: 18.75 mg/kg/injection, schedule: Q04DX003 (ip), vehicle: Klucel (hydroxypropylcellulose) (HPC)): 5 of 6
survivor count (dose: 20.0 mg/kg/injection, schedule: Q01DX009 (ip), vehicle: saline): 2 of 6
T/C [13]: 126, 130, 146 % of control
survivor count [13]: 0 of 4
survivor count (dose: 37.5 mg/kg/injection, schedule: Q04DX003 (ip), vehicle: Klucel (hydroxypropylcellulose) (HPC)): 5 of 6
survivor count (dose: 50.0 mg/kg/injection, schedule: Q04DX003 (ip), vehicle: saline): 0 of 4, 6 of 7, 4 of 4
survivor count (dose: 75.0 mg/kg/injection, schedule: Q04DX003 (ip), vehicle: Klucel (hydroxypropylcellulose) (HPC)): 5 of 6
survivor count [1]: 0 of 4 (2×) and 6 of 7
survivor count [2]: 0 of 4 (2×) and 0 of 7
survivor count [3]: 0 of 4

Nc1ccc(SS(N)(=O)=O)cc1
survivor count [11]: 3 of 6

CC1=NN(c2cccc(Cl)c2)C(=O)C1
survivor count [5]: 6 of 6
survivor count [12]: 3 of 6

O=C(O)COc1cc(Cl)c(Cl)cc1Cl (tested in a mixture with another compound)
survivor count [9]: 0 of 6 and 1 of 6
survivor count [10]: 0 of 6
survivor count [11]: 0 of 6

O=NN(CCCl)C(=O)NC1CCSCC1
T/C (dose: 2.0 mg/kg/injection, schedule: Q01DX001 (ip), vehicle: carboxymethylcellulose (CMC)): 134 % of control
survivor count (dose: 27.0 mg/kg/injection, schedule: Q01DX001 (ip), vehicle: carboxymethylcellulose (CMC)): 10 of 10
survivor count (dose: 31.0 mg/kg/injection, schedule: Q01DX001 (ip), vehicle: carboxymethylcellulose (CMC)): 3 of 6
survivor count (dose: 32.0 mg/kg/injection, schedule: Q01DX001 (ip), vehicle: carboxymethylcellulose (CMC)): 8 of 10
survivor count (dose: 62.0 mg/kg/injection, schedule: Q01DX001 (ip), vehicle: carboxymethylcellulose (CMC)): 2 of 6
survivor count (dose: 125.0 mg/kg/injection, schedule: Q01DX001 (ip), vehicle: carboxymethylcellulose (CMC)): 1 of 6
survivor count (dose: 250.0 mg/kg/injection, schedule: Q01DX001 (ip), vehicle: carboxymethylcellulose (CMC)): 0 of 6
survivor count (dose: 375.0 mg/kg/injection, schedule: Q01DX001 (ip), vehicle: carboxymethylcellulose (CMC)): 0 of 6
survivor count (dose: 500.0 mg/kg/injection, schedule: Q01DX001 (ip), vehicle: carboxymethylcellulose (CMC)): 0 of 6
